The results in this text go back to US20130296316A1, “Antiparasitic Agents Based On mTOR Inhibitors” (priority 2010, published 2013).

Holding throughout (type): cell-based
One assay deals with T. cruzi trypomastigotes. Kind of assay: T. cruzi intracellular replication in NIH/3T3 host cells (β-galactosidase, CPRG). To be noted: Trypanosoma cruzi, NIH3T3, 96 h, read-out: Effective concentration (EC50) T. cruzi.
Assay [1] concerns L. donovani axenic amastigotes. As to the kind of experiment: Potency assessment against Leishmania donovani axenic amastigotes (growth, cell counting). To be noted: read-out: Effective concentration (EC50) L. donovani axenic amastigotes. Here is the method:
(§1) Leishmania major strain FV1 (MHOM/IL/80/Friedlin) was grown in M199 media. Leishmania donovani strain LdBob (MHOM/SD/62/1S-CL2D) were grown in modified M199 media as promastigotes (26° C.). Amastigote specific media (37° C.) was used for growth and differentiation of amastigotes. L. donovani axenic amastigotes were passed once following differentiation prior to use. Cells were enumerated using a Coulter Counter (BD Biosciences); as amastigotes tend to grow in clumps, L. donovani axenic amastigotes were passed gently through a blunt 27-gauge needle prior to counting.
(§2) The compounds were first tested against parasites grown in vitro. For T. brucei and Leishmania donovani, it is possible to cultivate free parasites in vitro as the infective stage forms: bloodstream form (BSF) for T. brucei, and axenic amastigotes for L. donovani. compounds were also tested against L. major promastigotes (the stage carried normally by the insect vector). To study infective forms of T. cruzi, compounds were added simultaneously with trypomastigotes to 3T3 fibroblast host cells and incubated for four days. This protocol thus monitors all steps of the T. cruzi infective cycle (entry, differentiation and replication as amastigotes) as well as potential effects mediated through host cell PI3Ks.

The subject of assay [2] is L. donovani promastigotes. As to the kind of experiment: Potency assessment against Leishmania donovani promastigotes (growth, cell counting). To be noted: read-out: Effective concentration (EC50) L. donovani promastigotes. Here is the method:
as §1

The test system of another assay is T. b. rhodesiense. Kind of assay: Potency assessment against T. b. rhodesiense EATRO3 bloodstream form (AlamarBlue, 72 h). The settings on record: Trypanosoma brucei, read-out: Effective concentration (EC50) T. b. rhodesiense. Here is the method: (§3) Assays were performed using the strain of T. brucei brucei Lister 427 adapted to the laboratory, and the human-infective strain T. b. rhodesiense (EATRO3 ETat1.2 TREU164 [37]). Both strains were grown and tested as bloodstream forms. To establish the EC50, cultures of Trypanosoma brucei and T. b. rhodesiense were treated with two-fold increasing concentrations of compounds (with similar DMSO increasing concentration as control). Cell populations were measured at 72 hours with an Infinite F200 microplate reader (Tecan Austria GmbH, Austria); the determination of cell viability was carried out by the established colorimetric technique AlamarBlue® with modifications, a 96-well plate format spectrophotometric assay which measures the ability of living cells to reduce resazurin [38,39]. Data obtained with T. b. brucei Lister 427 were confirmed by manual counting in a Neubauer chamber for a direct microscopic examination to rule out multinucleated phenotypes that could mask the colorimetric assays, as well as the subtraction of solvent background to dismiss a potential solvent-derived fluorescence. Pentamidine was used as drug control for potency comparison, and T. b. brucei Lister 927 strain was included in our experiments to evaluate the adaptation to medium for the different strains as a variable condition.

Assay [3] deals with T. brucei brucei Lister 427. As to the kind of experiment: Potency assessment against T. brucei brucei Lister 427 bloodstream form (AlamarBlue, 72 h). The settings on record: Trypanosoma brucei, read-out: Effective concentration (EC50) T. b. brucei. As for the experimental part:
as §3

A further assay relates to L. major promastigotes. Kind of assay: Potency assessment against Leishmania major promastigotes (growth, cell counting). To be noted: read-out: Effective concentration (EC50) L. major. Here is the method:
as §1, §2

A value given as a limit tells only on which side of the number the result lay.

With `CC(C)n1nc(-c2cc3cc(O)ccc3[nH]2)c2c(N)ncnc21` [Pp242], the EC50 with T. cruzi trypomastigotes is over 10000 nM; in assay [1], 500 ± 90 nM; in assay [2], 420 ± 30 nM; in the assay with T. b. rhodesiense it was 166 ± 15 nM; in assay [3] it was 480 ± 100 nM; in the assay on L. major promastigotes, 2400 ± 800 nM.
